The record followed here is USRE49026.

Sequences of proteins named here, by UniProt entry; tags and fusion partners are left off. A change or cut given only in a name is not applied to a line headed by its entry. Residues count along the entry.
UniProt Q5VWK5: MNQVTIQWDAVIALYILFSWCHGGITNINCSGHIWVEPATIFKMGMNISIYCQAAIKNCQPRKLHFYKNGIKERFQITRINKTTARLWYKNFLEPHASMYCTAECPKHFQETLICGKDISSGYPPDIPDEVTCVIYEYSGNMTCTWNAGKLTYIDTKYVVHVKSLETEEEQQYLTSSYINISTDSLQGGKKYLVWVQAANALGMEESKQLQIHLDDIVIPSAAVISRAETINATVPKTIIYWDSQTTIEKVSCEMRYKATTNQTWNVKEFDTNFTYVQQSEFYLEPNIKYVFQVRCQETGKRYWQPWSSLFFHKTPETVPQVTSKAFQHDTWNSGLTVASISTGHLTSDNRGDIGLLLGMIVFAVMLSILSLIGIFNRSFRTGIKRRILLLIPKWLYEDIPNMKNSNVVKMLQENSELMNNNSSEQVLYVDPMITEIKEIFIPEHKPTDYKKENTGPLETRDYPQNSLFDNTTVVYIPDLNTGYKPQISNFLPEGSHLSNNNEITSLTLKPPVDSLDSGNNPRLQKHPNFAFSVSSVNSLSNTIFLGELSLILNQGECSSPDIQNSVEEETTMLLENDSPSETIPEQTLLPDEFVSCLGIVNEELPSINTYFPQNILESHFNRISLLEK
human IL-23R expressed on the cell surface: residues 24-629 of Q5VWK5
recombinant human IL-23R/Fc chimera: residues 24-353 of Q5VWK5

No constants are given. Whether binding was seen depends on the method and setting. Some results given as binding are weak or reduced against the parent protein; the word gives no strength. For part of these data: Where a sequence is shown, tags or fusion partners need not be part of it.

Experiment [1] has as its target recombinant human IL-23R/Fc chimera (human) (UniProt Q5VWK5). The experiment can be described thus: phage display panning, protein A capture.
Experiment [2] shares this target. The experiment in a line: phage ELISA on coated IL-23R/Fc, anti-M13 detection.
Experiment [3] addresses human IL-23R expressed on the cell surface (human) (UniProt Q5VWK5). The experiment in a line: flow cytometry on DB cells, FIG. 22 legend. (In flow cytometry, cells or beads pass a laser one at a time.)
The target is the same in experiment [4]. The experiment in a line: flow cytometry on DB cells treated with IL-23R siRNA or control siRNA.
For experiment [5] the target is unchanged. The experiment in a line: flow cytometry on DB cells, 0.1, 0.5 and 1 µg biotinylated no. 1-Fc.

B1: M13 phage displaying polypeptide no. 14 (peptide, not shown: large carriers)
chain: GWKDYWTTFQLR
On to B1, for which the binding result in experiment [1] and in experiment [2] was “binds” throughout.

B2: M13 phage displaying polypeptide no. 24 (peptide, not shown: large carriers)
chain: GWKDYWTTFQLR
For B2, the binding entry in experiment [1] is given as “binds”.

B3: polypeptide no. 1-Fc fusion protein (Fc fusion, not shown: a dimerising Fc or GST)
chain: SGASWVQYWVQR
As to B3, the binding result in experiment [3], in experiment [4] and in experiment [5] was “binds” throughout.
